PubChem BioAssay AID1259254 | NCATS – 2017

Purpose: 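Genome-wide screen for genes that prevent DNA re-replication in cancer cells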 (primary screen)
Cell system: human HCT116 colorectal cancer cells
Knock-down reagent: single siRNA against human genes
Duration: 3 days
Read-out: 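Imaged Hoechst DNA stain sorts each cell into a cycle phase by DNA amount; per plate, G2 fraction set to 0% for non-targeting and 100% for GMNN siRNA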
Scale: G2 robust z-score and G2 cells, % of GMNN control: higher = more G2 cells, more excess DNA replication; raw share of cells in G2: higher = larger share of cells with G2 DNA content
Call rule: 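Active siRNAs have a G2 robust z of 5 or more median absolute deviations over the median, which in these data means about 38% or higher of GMNN control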
In all, the deposit lists about 59,000 reagents; below is an unselected part. About 1,550 of all reagents (2.6%) count as active. 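G2 share is only a proxy for re-replication; each gene was hit by three separate siRNAs, and active genes were retested.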 Raw values vary from plate to plate and are shown uncorrected. Unmarked entries are inactive. The numbers tell different reagents against one gene apart. Reagent sequences are not shown. The record does not give: the amount of reagent.

Target gene | reagent | G2 robust z-score | G2 cells, % of GMNN control | raw share of cells in G2 (%)
STRIP2 | 1 | -0.856 | -3.06 | 3.14
STRIP2 | 2 | -0.628 | -1.45 | 3.77
STRIP2 | 3 | -0.495 | -0.513 | 2.87
CHST6 | 1 | -0.836 | -2.92 | 2.23
CHST6 | 2 | 1.08 | 10.6 | 9.66
CHST6 | 3 | -0.505 | -0.587 | 5.13
BACE1 | 1 | 0.127 | 3.86 | 6.91
BACE1 | 2 | 2.16 | 18.1 | 11.3
BACE1 | 3 | -1.16 | -5.23 | 1.96
ZNF519 | 1 | -0.598 | -1.24 | 2.66
ZNF519 | 2 | 1.78 | 15.5 | 8.54
ZNF519 | 3 | 2.71 | 22.1 | 11.3
MRPL53 | 1 | 1.35 | 12.5 | 9.09
MRPL53 | 2 | -0.567 | -1.02 | 3.03
MRPL53 | 3 | 0.658 | 7.6 | 4.04
ATF4P3 | 1 | -0.626 | -1.44 | 3.09
ATF4P3 | 2 | -0.562 | -0.984 | 2.92
ATF4P3 | 3 | -0.0813 | 2.4 | 3.84
ARFGEF3 | 1 | -0.307 | 0.807 | 4.66
ARFGEF3 | 2 | 1.46 | 13.2 | 10.8
ARFGEF3 | 3 | 0.364 | 5.53 | 4.78
ZNF257 | 1 | 0.0891 | 3.59 | 4.33
ZNF257 | 2 | 0.0893 | 3.6 | 4.41
ZNF257 | 3 | 0.497 | 6.46 | 5.79
GUCY1A1 | 1 | 0.0576 | 3.37 | 5.44
GUCY1A1 | 2 | -0.693 | -1.91 | 4.35
GUCY1A1 | 3 | 0.678 | 7.74 | 8.63
SEC61G | 1 | 4.26 | 33 | 14.8
SEC61G | 2 | 3.69 | 28.9 | 15.3
SEC61G | 3 | 2.21 | 18.5 | 12

2 consecutive entries already listed:
Target gene | reagent | G2 robust z-score | G2 cells, % of GMNN control | raw share of cells in G2 (%)
CHST6 | 2 | 1.08 | 10.6 | 9.66
CHST6 | 3 | -0.505 | -0.587 | 5.13
